# Source: the supplement of paper PMC8497498
# ± gives the standard deviation of the averaged measurements. Some of the results follow. The data scatter; read single values as rough.
# Key:
# Conditions in all cases: 10 µM
# [1] = system: Plasmodium vivax liver stage (primary human hepatocyte culture); experiment: hypnozoite quantity inhibition (% inhibition); higher = more active against hypnozoites
# [2] = system: Plasmodium vivax liver stage (primary human hepatocyte culture); experiment: schizont net growth area inhibition (% inhibition); higher = more active against liver schizonts
# [3] = system: primary human hepatocytes; experiment: hepatic nuclei reduction relative to DMSO (100 - % of negative control); higher = more toxic to hepatocytes
# [4] = assay mode: Prophylactic (treated before or shortly after infection), fixed day 6 post-infection
# [5] = assay mode: Radical Cure (treated from day 5 post-infection for 3 days), fixed day 8 post-infection
SMILES,"hypnozoite quantity inhibition [1, 4]","hypnozoite quantity inhibition [1, 5]","schizont net growth area inhibition [2, 4]","schizont net growth area inhibition [2, 5]","hepatic nuclei reduction [3, 4] [%]","hepatic nuclei reduction [3, 5] [%]"
CCCCCCc1cc2cc(-c3csc(C=Cc4ccccc4)n3)c(=O)oc2cc1O,3.2,35.9,34.8,21.3,-47,9
Cc1ccc2nc(C)c(-c3ccn(Cc4ccccc4)n3)n2c1,-112,-43,-67,-26.9,-12,-7
COc1ccc(-c2cc3c(nn2)-c2ccccc2C3=O)cc1,-34.8,40.5,-37,30.1,-10,-7
COc1nc(Nc2ccc(C(C)C)cc2)nc(OC)n1,9.5,48.2,29.8,-1.9,4,-3
NCC(=O)N1CCn2c(nc(-c3ccccc3)c2Nc2ccc3c(c2)OCO3)C1,-9,-48,-85.6,-20.2,-2,-3
COc1ccc(C2=C(c3ccc(OC)cc3)C3(c4ccccc4)C(=O)C2(c2ccccc2)C2C(=O)N(c4ccc(C)cc4)C(=O)C23)cc1 (configuration not stated),-13.2,51.9,33.5,-13.9,-12,2
Cc1oncc1C(=O)Nc1ccc(C(F)(F)F)cc1,22,-54,21.7,-33.6,4,-4
CCOC(=O)c1cn(CC)c2cc(N3CCCCC3)c(F)cc2c1=O,49.3,49.6,80.6,-4.1,-11,10
CCOc1ccccc1NC(=O)CN1CCN(C(=O)c2ccco2)CC1,12.6,23.7,-1.7,11.6,7,-3
COc1ccc(-c2nn(C(C)C)c3ncnc(N)c23)cc1OC,94,-4,102,107,9,-9
Cc1cc(CCCOc2c(C)cc(-c3noc(C(F)(F)F)n3)cc2C)on1,-68,-22,-43.3,-242,-6,-3
Cc1ccc(C2CC(C(F)(F)F)n3nc(C(=O)N4CCN(C(c5ccccc5)c5ccccc5)CC4)cc3N2)cc1 (configuration not stated),3.9,40.5,-78.5,-11.3,-13,-10
COc1ccc(C(=O)C2CC2c2ccc(Cl)cc2)cc1 (configuration not stated),-33.3,22.1,27.6,-4.6,-11,-1
COc1ccc(C(=O)NC(c2ccc(Cl)cc2Cl)c2cc(Cl)c3cccnc3c2O)cc1 (configuration not stated),24,-3.5,25.4,-18.8,-6,-1
Cc1ccc(Cn2c(N3CCC(C(=O)NCc4cccs4)CC3)nc3ccccc32)cc1,19.5,45,93.8,10,-7,4
C[C@H](C(N)=O)N1CCCC[C@@H]1c1ccc(OCc2cccc(F)c2)cc1,-24,0,-33.6,-18.9,-10,-4
COc1ccc(OC)c(NCc2ccc3nc(N)nc(N)c3c2Cl)c1,-89,19,96.3,45,-8,0
CCCCN(CCCC)c1c(C#N)cc(S(=O)(=O)Nc2ccccc2)cc1C#N,-45,-49,22.4,-204,-7,-5
COc1ccc(Nc2nc(NCc3ccccc3)c3ccccc3n2)cc1,20.2,72.8,50.1,17.5,0,14

SMILES,"hypnozoite quantity inhibition [1, 4]","hypnozoite quantity inhibition [1, 5]","schizont net growth area inhibition [2, 4]","schizont net growth area inhibition [2, 5]","hepatic nuclei reduction [3, 4] [%]","hepatic nuclei reduction [3, 5] [%]"
COc1ccccc1C(C)NCC(=O)Nc1cc(C(F)(F)F)ccc1Cl (configuration not stated),-45,-65,6.2,-70.6,-10,-2
CNC(=O)C1Cc2c([nH]c3cc(Cl)ccc23)C2(CCN(CCc3ccccc3)CC2)N1 (configuration not stated),4,-31,62.1,-41,-9,-4
Cc1cc(C=C2SC(=Nc3ccccc3)N(C3CCCC3)C2=O)c(C)n1-c1ccc(Cl)cc1,-8.8,10.1,39.6,-98.1,0,-5
Cc1ccc(N2C3c4ccccc4N(S(=O)(=O)c4ccc(C)cc4)C2c2ccccc2N3S(=O)(=O)c2ccc(C)cc2)cc1,-6.5,29,11.5,40.4,-6,-2
CCN(CC)CCCNc1nc(-c2ccc(Cl)cc2)nc2ccccc12,5.7,15.6,80.5,68.9,7,-3
O=C(NC1CCN(Cc2ccccc2)CC1)c1cc2nc(-c3ccc(Cl)s3)cc(C(F)(F)F)n2n1,-28.1,40.5,-72.3,33.6,-18,-5
CCN(CC)CCCCCCNc1cc(OC)cc2c(C)ccnc12,-3.5 ± 5,-15.5 ± 25,61.2 ± 6.7,6.2 ± 9.1,0 ± 1.4,-6 ± 1.4
Cc1ccccc1OCCSc1nc2ccc(NC(=O)c3cccs3)cc2s1,-1.9,23.7,37.4,-0.3,-3,-5
O=C(Nc1cccc(C(F)(F)F)c1)c1cc(Cl)ccc1O,-24.3,26.7,36.8,-14.2,-1,3
c1cc(C2=NCCN2)cc(-c2cc(-c3ccc(C4=NCCN4)cc3)no2)c1,-10,-15,-43.9,-114,1,-1
COc1cc2ncnc(NC3CCN(Cc4ccccc4)CC3)c2cc1OC,-83,-23,34.4,-62.9,9,3
CC(C)(C)c1ccc(N[C@@H]2CCCC[C@H]2NC(=O)c2ccco2)cc1,8,-2,-2.4,-59.2,-5,-7
CCc1cc(=O)n(C)c(SC(C)C(=O)Nc2ccc(F)cc2)n1 (configuration not stated),-24,57,-1.3,63.5,-8,7
O=C1[C@@H](Oc2ccccc2)[C@@H](c2ccc(Cl)cc2)N1CCn1cnc2c(NCc3ccccc3)ncnc21,-21,9,-24.1,39.8,-6,1
c1ccc2c(NCCc3c[nH]c4ccccc34)c3ccccc3nc2c1,43,26.5,100,-69.4,11,-4
CCCCc1ccc(C(=O)Nc2nccc3ccccc23)nc1,5,-4,65.5,-65.7,-11,-3
Cc1cc(C)cc(Nc2cc(C)nc3nc(C(F)(F)F)nn23)c1,-8.7,40.5,18.5,26.7,-8,2
Oc1c2c(nc3cc(-c4ccccc4)nn13)CCCC2,-19.1,-21.4,14.1,-48,-10,-6
OC(Cn1nnc2ccccc21)Cn1c2ccc(Br)cc2c2cc(Br)ccc21 (configuration not stated),-26.6,35.9,70.1,5.8,-6,-1

SMILES,"hypnozoite quantity inhibition [1, 4]","hypnozoite quantity inhibition [1, 5]","schizont net growth area inhibition [2, 4]","schizont net growth area inhibition [2, 5]","hepatic nuclei reduction [3, 4] [%]","hepatic nuclei reduction [3, 5] [%]"
O=S(=O)(c1ccc(Cl)cc1)N1CCN(C(=S)NCc2ccco2)CC1,44,-80,64.4,-331,5,3
Cc1ncc(-c2ccnc(Nc3ccc(S(C)(=O)=O)cc3)n2)n1C(C)C,46,19,102,89.4,22,9
Cc1cc(C)c2cc(C(=O)NC3CCCCCCC3)[nH]c2c1,3,-78,-30.5,-128,3,-6
CC(Oc1cccc(Cl)c1)C(=O)Nc1ccc2oc(-c3ccncc3)nc2c1 (configuration not stated),-27,-23,18.1,-25.2,1,3
O=C(Nc1cccc(-c2ccc(NCCCN3CCCC3)nc2)c1)c1ccccc1,21,-18,57.4,-48.2,-2,-9
COc1cc(C2=NCCN2)ccc1-n1cc(-c2cccc(C3=NCCN3)c2)nn1,-11,9,-19.4,38.6,1,0
c1cncc(NCc2ccc(-c3cc4ccncc4cc3OC3CCNCC3)s2)c1,14,-130,35.8,-131,-1,-11
Cc1ccccc1CN1CCC(O)(c2ccc(Cl)c(C(F)(F)F)c2)CC1,-43,-4,-10.7,-107,-11,-3
Cc1ccc2oc(-c3cc(NC(=O)Cc4ccccc4)ccc3Cl)nc2c1,13,-7,-16.3,-10.3,-2,-2
FC(F)(F)c1cc(NCCc2ccccc2)nc(-c2ccccn2)n1,31,-12,23.1,-24.7,6,5
CN1CCN(CCCOc2ncc(Nc3ncc(-c4ccc(C(F)(F)F)c(F)c4)nc3C(N)=O)cn2)CC1,-19,-3,55.1,45.8,0,-3
c1ccc(Oc2ccc(-c3cncc(-c4ccc5[nH]ccc5c4)n3)cc2)cc1,-21,-18,-17.1,-140,-12,0
Cc1[nH]c2cc(F)cc(F)c2c(=O)c1-c1ccc(Oc2ccc(OC(F)(F)F)cc2)cc1,-70,-31,49.3,25,-4,-1
Cc1cc(Nc2ccc(Cl)cc2)n2nc(C(F)(F)F)nc2n1,9.1,49.6,60.5,-7.7,-9,-1
Cc1ccc(OCCCCCCNCCO)c(C)c1,10.6,29,83.3,49.8,-11,21
Cc1cc(Nc2ccc(C(F)(F)F)nc2)n2nc(C(C)(F)F)nc2n1,-31,2,63.4,62.4,-6,3
O=C(Nc1cnc2ccccc2c1)c1cccc(-n2cnnn2)c1,-3,43,-10.4,59.2,-9,2
CCN(CC)CCNc1ccnc2cc3ccccc3cc12,-2.8,51.9,-295,42.5,-4,-3
CCOc1ccccc1NC(C)C(=O)Nc1cc(C(F)(F)F)ccc1N1CCOCC1 (configuration not stated),-3,16,-29.5,26.3,-8,-3

# A second format for some results above:
SMILES	hypnozoite quantity inhibition [1, 4]	hypnozoite quantity inhibition [1, 5]	schizont net growth area inhibition [2, 4]	schizont net growth area inhibition [2, 5]	hepatic nuclei reduction [3, 4] [%]	hepatic nuclei reduction [3, 5] [%]
COc1ccc(C2=C(c3ccc(OC)cc3)C3(c4ccccc4)C(=O)C2(c2ccccc2)C2C(=O)N(c4ccc(C)cc4)C(=O)C23)cc1 (configuration not stated)	-13.2	51.9	33.5	-13.9	-12	2
FC(F)(F)c1cc(NCCc2ccccc2)nc(-c2ccccn2)n1	31	-12	23.1	-24.7	6	5
